According to PubChem BioAssay AID330 (DTP/NCI, 2004):
The list is a part of this screen's results and no random one: it gathers tests that were run many times, whatever their T/C, doses with no T/C, and many T/C values between a quarter and a half above the control. Other doses and runs of a compound stand elsewhere. T/C is the treated group as % of the vehicle group. Some entries give survivors of the animals treated and no T/C: the source files T/C as zero there, which appears to mark a toxic dose or a test without result, not a measured value. Some doses without a T/C left all or most animals alive at the check, yet need not have been tolerated: survival well below the control is almost never listed, so the zero probably covers shortened survival too. Counts of survivors are from the toxicity check (mostly the fifth day) where no day follows; animals may have died later. Schedule codes are those of the source, read here as Q, the interval in days (D) or hours (H), X, the number of doses. Some entries were tested several times; the values are given in rising order. For survival time, this PubChem deposit counts one and a half times the control or more as active, and values a quarter to a half above the control carry no call in these data; other NCI protocols may use other cut-offs.

Tested on: P388 leukemia ip, CD2F1 mice, survival T/C
Test: NCI In Vivo Anticancer Drug Screen. Data for tumor model P388 Leukemia (intraperitoneal) in CD2F1 (CDF1) mice
Settings: T/C endpoint: median survival time, higher T/C = longer survival
[1] = dose: 2.5 mg/kg/injection, schedule: Q01DX009 (ip), vehicle: water
[2] = dose: 5.0 mg/kg/injection, schedule: Q01DX009 (ip), vehicle: water
[3] = dose: 10.0 mg/kg/injection, schedule: Q01DX009 (ip), vehicle: water
[4] = dose: 200.0 mg/kg/injection, schedule: Q01DX005 (ip), vehicle: Klucel (hydroxypropylcellulose) (HPC)
[5] = dose: 20.0 mg/kg/injection, schedule: Q01DX009 (ip), vehicle: water
[6] = dose: 200.0 mg/kg/injection, schedule: Q01DX005 (ip), vehicle: saline with Tween-80
[7] = dose: 100.0 mg/kg/injection, schedule: Q04DX002 (ip), vehicle: saline with Tween-80
[8] = dose: 200.0 mg/kg/injection, schedule: Q04DX002 (ip), vehicle: saline with Tween-80
[9] = dose: 400.0 mg/kg/injection, schedule: Q04DX002 (ip), vehicle: saline with Tween-80
[10] = dose: 50.0 mg/kg/injection, schedule: Q01DX009 (ip), vehicle: Klucel (hydroxypropylcellulose) (HPC)
[11] = dose: 100.0 mg/kg/injection, schedule: Q01DX009 (ip), vehicle: Klucel (hydroxypropylcellulose) (HPC)
[12] = dose: 200.0 mg/kg/injection, schedule: Q01DX009 (ip), vehicle: saline with Tween-80
[13] = dose: 200.0 mg/kg/injection, schedule: Q01DX009 (ip), vehicle: Klucel (hydroxypropylcellulose) (HPC)
[14] = dose: 100.0 mg/kg/injection, schedule: Q01DX009 (ip), vehicle: saline with Tween-80
[15] = dose: 5.0 mg/kg/injection, schedule: Q01DX009 (ip), vehicle: other
[16] = dose: 10.0 mg/kg/injection, schedule: Q01DX009 (ip), vehicle: other
[17] = dose: 200.0 mg/kg/injection, schedule: Q01DX009 (ip), vehicle: saline
[18] = dose: 240.0 mg/kg/injection, schedule: Q01DX005 (ip), vehicle: saline with Tween-80
[19] = dose: 240.0 mg/kg/injection, schedule: Q01DX005 (ip), vehicle: Klucel (hydroxypropylcellulose) (HPC)

## CCOCC(=O)N[C@H]1CCc2cc(OC)c(OC)c(OC)c2-c2ccc(OC)c(=O)cc21
[1]
  survivor count: 0 of 6 and 1 of 6
[2]
  survivor count: 0 of 6
[3]
  survivor count: 0 of 6

## c1cc(-c2nc3ccc(-c4nc5ccc(C6=NCCN6)cc5[nH]4)cc3[nH]2)ccc1C1=NCCN1
dose: 25.0 mg/kg/injection, schedule: Q01DX005 (ip), vehicle: Klucel (hydroxypropylcellulose) (HPC)
  survivor count: 3 of 6
dose: 100.0 mg/kg/injection, schedule: Q01DX005 (ip), vehicle: Klucel (hydroxypropylcellulose) (HPC)
  survivor count: 0 of 6
[4]
  survivor count: 0 of 6

## COc1cccc2c1C(=O)c1c(O)c3c(c(O)c1C2=O)C[C@@](O)(C(C)=O)CC3OC1CC(N/C(C)=C/C(=O)c2ccccc2)C(O)C(C)O1 (stereo partly drawn)
dose: 100.0 mg/kg/injection, schedule: Q04DX003 (ip), vehicle: saline with Tween-80
  T/C: 132 % of control
dose: 200.0 mg/kg/injection, schedule: Q04DX003 (ip), vehicle: saline with Tween-80
  T/C: 133 % of control

## CCc1ccc(/C=C/C(=O)C(C)CN(C)C)cc1 (stereo not drawn)
dose: 240.0 mg/kg/injection, schedule: Q01DX005 (ip), vehicle: saline
  survivor count: 6 of 6

## Nc1ccc2nc3ccccc3c(NCCCCCCCCNc3c4ccccc4nc4ccc(N)cc34)c2c1
[3]
  T/C: 146 % of control
[5]
  survivor count: 6 of 6
dose: 40.0 mg/kg/injection, schedule: Q01DX009 (ip), vehicle: water
  survivor count: 0 of 6

## Nc1nc(SCc2cccc(Br)c2)c2ncn(C3OC(CO)C(O)C3O)c2n1 (stereo not drawn)
dose: 150.0 mg/kg/injection, schedule: Q01DX009 (ip), vehicle: saline with Tween-80
  survivor count: 6 of 6

## CCN(CC)CCCC(C)NCC(O)c1cc(-c2ccc(Cl)cc2)nc2ccccc12 (stereo not drawn)
[6]
  survivor count: 0 of 5

## Cc1c(C)c(C)c2c(c1C)C1(C)C=CC2(C)N1C
[7]
  survivor count: 0 of 6
[8]
  survivor count: 0 of 6
[9]
  survivor count: 0 of 6

## CSc1nc2ccc(N=Cc3ccc([N+](=O)[O-])cc3)cc2s1
[10]
  survivor count: 6 of 6
[11]
  survivor count: 6 of 6

## O=C(Nc1cccc2ccccc12)Oc1cccc2cccnc12
[12]
  survivor count: 2 of 6

## CCCCN(C)c1ncnc2[nH]ncc12
dose: 200.0 mg/kg/injection, schedule: Q04DX003 (ip), vehicle: saline
  survivor count: 4 of 6
dose: 400.0 mg/kg/injection, schedule: Q04DX003 (ip), vehicle: saline
  survivor count: 0 of 6

## COc1cc(C2=N/C(=C/c3cccc(O)c3O)C(=O)O2)cc(OC)c1OC
dose: 25.0 mg/kg/injection, schedule: Q01DX009 (ip), vehicle: Klucel (hydroxypropylcellulose) (HPC)
  survivor count: 6 of 6
[10]
  survivor count: 6 of 6
[11]
  survivor count: 6 of 6
[13]
  survivor count: 6 of 6

## Cn1nnc(-c2ccc(C(=O)O)cc2)n1
[4]
  survivor count: 5 of 5

## O=C1NCCCCC1(Cl)Cl
dose: 100.0 mg/kg/injection, schedule: Q01DX005 (ip), vehicle: saline with Tween-80
  survivor count: 2 of 5
[6]
  survivor count: 0 of 5

## CCOC(=O)/C(=C/c1ccco1)C(C)=O
dose: 400.0 mg/kg/injection, schedule: Q01DX009 (ip), vehicle: Klucel (hydroxypropylcellulose) (HPC)
  survivor count: 2 of 6

## O=[N+]([O-])c1ccc(NCc2ccccc2)nc1
dose: 400.0 mg/kg/injection, schedule: Q01DX009 (ip), vehicle: saline with Tween-80
  survivor count: 2 of 6

## CN[C@H]1CC[C@]23C[C@]24CC[C@]2(C)[C@@H]([C@H](C)N(C)C)CC[C@@]2(C)[C@@H]4CC[C@H]3C1(C)C
[14]
  survivor count: 4 of 6

## COc1cccc2c1C(=O)c1c(O)c3c(c(O)c1C2=O)CC(O)(C(C)NCCN(C)C)CC3OC1CC(N)C(O)C(C)O1 (stereo not drawn)
[1]
  T/C: 125 % of control
[15]
  T/C: 130 % of control
[2]
  T/C: 134 % of control
[16]
  T/C: 144 % of control
[3]
  T/C: 125 % of control
[5]
  T/C: 139 % of control
dose: 80.0 mg/kg/injection, schedule: Q01DX009 (ip), vehicle: other
  T/C: 148 % of control

## OCC1CCCN1 (stereo not drawn)
dose: 400.0 mg/kg/injection, schedule: Q04DX002 (ip), vehicle: saline
  survivor count: 0 of 6

## Cn1c2ccccc2c2nnc(N/N=C/c3ccncc3)nc21
[7]
  survivor count: 6 of 6
[8]
  survivor count: 6 of 6

## Cc1ncc2n1-c1ccc(Cl)cc1C(c1ccccc1F)=NC2
[17]
  survivor count: 3 of 6

## CNC(=O)OCc1c(COC(=O)NC)c(-c2ccsc2)n2c1CCC2
dose: 30.0 mg/kg/injection, schedule: Q01DX005 (ip), vehicle: saline with Tween-80
  T/C: 125 % of control
dose: 120.0 mg/kg/injection, schedule: Q01DX005 (ip), vehicle: saline with Tween-80
  survivor count: 1 of 6
[18]
  survivor count: 0 of 6

## COc1ccc(/C=C/C(C)=O)c(OC)c1
dose: 400.0 mg/kg/injection, schedule: Q01DX001 (ip), vehicle: Klucel (hydroxypropylcellulose) (HPC)
  survivor count: 0 of 6

## CCN(CC)CCCNc1ccc(C)c2sc3ccccc3c(=O)c12
dose: 100.0 mg/kg/injection, schedule: Q01DX005 (ip), vehicle: saline
  survivor count: 1 of 5
dose: 200.0 mg/kg/injection, schedule: Q01DX005 (ip), vehicle: saline
  survivor count: 0 of 5

## CCCCOc1cccc2c(NCCCCNCCCNc3c4ccccc4nc4c(OCCCC)cccc34)c3ccccc3nc12
dose: 2.5 mg/kg/injection, schedule: Q01DX009 (ip), vehicle: other
  T/C: 128 % of control
[15]
  T/C: 127 % of control
[16]
  survivor count: 0 of 6 and 5 of 6
dose: 20.0 mg/kg/injection, schedule: Q01DX009 (ip), vehicle: other
  survivor count: 0 of 6
dose: 40.0 mg/kg/injection, schedule: Q01DX009 (ip), vehicle: other
  survivor count: 0 of 6

## O=c1[nH]c(Sc2ccccn2)ccc1[N+](=O)[O-]
dose: 6.25 mg/kg/injection, schedule: Q01DX009 (ip), vehicle: Klucel (hydroxypropylcellulose) (HPC)
  survivor count: 6 of 6
dose: 12.5 mg/kg/injection, schedule: Q01DX009 (ip), vehicle: Klucel (hydroxypropylcellulose) (HPC)
  survivor count: 6 of 6
[10]
  survivor count: 6 of 6
[11]
  survivor count: 6 of 6
[13]
  survivor count: 1 of 6

## CC1SCC(=O)N1c1nncs1 (stereo not drawn)
[19]
  T/C: 145 % of control

## CN1CCN(C)C1=Nc1ccccc1/C=C/C=C1C(=O)N(C)C(=O)N(C)C1=O
[7]
  T/C: 125 % of control
[8]
  survivor count: 0 of 6
[9]
  survivor count: 0 of 6

## CC(C)N=C(Cc1ccccc1)NC(C)(C)C
dose: 50.0 mg/kg/injection, schedule: Q01DX009 (ip), vehicle: saline
  survivor count: 0 of 6
dose: 100.0 mg/kg/injection, schedule: Q01DX009 (ip), vehicle: saline
  survivor count: 0 of 6
[17]
  survivor count: 0 of 6

## CCCCCCCCCC(=O)NC(CN1CCOCC1)C(=O)c1ccccc1 (stereo not drawn)
dose: 100.0 mg/kg/injection, schedule: Q04DX003 (ip), vehicle: saline
  survivor count: 6 of 6

## CCC(=N\NC(=S)NCCN(CC)CC)/C(C)=N/NC(=S)NCCN(CC)CC
dose: 50.0 mg/kg/injection, schedule: Q01DX009 (ip), vehicle: saline with Tween-80
  survivor count: 0 of 6
[14]
  survivor count: 0 of 6
[12]
  survivor count: 0 of 6

## O=S(=O)(c1ccccc1)N1OC1c1ccccc1 (stereo not drawn)
[12]
  survivor count: 5 of 6

## c1ccc2c(c1)OCc1nccn1-2
[19]
  survivor count: 1 of 6

## O=S(=O)(Nc1nccs1)c1ccc(Nc2c3ccccc3nc3ncccc23)cc1
[18]
  survivor count: 6 of 6
